# Test results published in article PMC12548414.
# The campaign covered roughly 1,600 compounds. About 20 (1%) showed an effect of 50% or more. The list shows a part of the results.
# Test system: T1, E. coli pLC1021 (luc-trpAt trans-translation reporter)
# T1 construct: pLC1021 luc-trpAt reporter strain
# Design: species or system Escherichia coli pLC1021; luc-trpAt non-stop luciferase reporter; luminescence rises when trans-translation is inhibited; normalized to KKL-35 and DMSO
# Conditions: reporter signal, KKL-35 = 100%; rise means trans-translation inhibition; 2 h, 20 µM
# Experimental: The luciferase screen was performed as previously described ([16]). […] 48 µL of cells was transferred to white 96-well plates, and 2 µL DMSO or 20 µM compound, or 20 µM KKL-35 was added. Plates were sealed with adhesive film, vortexed gently to mix, and incubated at room temperature for 2 h. 50 µL Bright-Glo reagent (Promega, Madison, WI) was added to each well, and the plates were sealed with adhesive film, vortexed vigorously, and incubated for an additional 10 min at room temperature. Luminescence was measured at 560 nm using a SpectraMax i3 microplate reader and readings for each plate were normalized to the average of three KKL-35-treated wells (positive control) and three DMSO-treated wells (negative control) within the plate to correct for plate-to-plate and day-to-day variations. Results from at least two biological repeats were averaged, and GraphPad Prism was used to plot the data. We screened a library of 1,601 anti-tubercular small molecules for their ability to inhibit trans-translation using a luciferase reporter in Escherichia coli. In this luc-trpAt reporter, the firefly luciferase gene has a trpA transcriptional terminator before the stop codon, such that luciferase is translated from a non-stop mRNA ([16]). When trans-translation is active, the luciferase will be tagged and degraded, but when trans-translation is inhibited, active luciferase will accumulate, resulting in a luminescent signal when luciferin is added. Luciferase activity was measured after growth in the presence of compounds from the library at 20 µM, using the known trans-translation inhibitor KKL-35 as a positive control (Fig. 1A) ([16], [17]). Compounds with activity one standard deviation above the median were scored as positive (Fig. S1 and Table S1).
row,Compound,% activation [%]
1,Clc1cccc(Nc2nc(NCc3ccco3)c3ccccc3n2)c1 [KKL-0728],0
2,O=C(Nc1ccc(Cl)cc1C(F)(F)F)c1ccc([N+](=O)[O-])o1 [KKL-0712],0
3,CC(C)OC(=O)CSc1nnc(-c2ccc(Cl)cc2Cl)o1 [KKL-1620],0
4,CN(C)CCCn1c(SCC(=O)Nc2nc(-c3cccc(Br)c3)cs2)nc2ccccc2c1=O [KKL-0806],0
5,CCOC(=O)c1ccc(NC(=O)c2ccc(C)s2)cc1 [KKL-0584],0
6,CCC(C)c1ccc(OCCCCn2ccnc2)cc1 (stereo not shown) [KKL-1371],14
7,Cn1nc(-c2ccc3ccccc3c2)cc1[C@H]1CN2CC[C@H]1C[C@@H]2COC(=O)Nc1cccc(C(F)(F)F)c1 [KKL-0323],0
8,Cc1ccc2cc3c(nc2c1C)OC(=O)N(C1CCCC1)C3 [KKL-0690],1
9,Cc1ccc(-c2nn(-c3cccc(F)c3)cc2CNCc2cnn(Cc3ccccc3)c2)o1 [KKL-0458],0
10,CC(C)(C)n1cnc2cc(NC(=O)c3ccc(Cl)cc3)ccc21 [KKL-1231],0
11,Brc1ccc(-c2nn(-c3ccccc3)cc2CNCc2ccccc2)cc1 [KKL-0405],0
12,Cc1ccc2nc(Cl)c(/C=C/C(=O)c3ccco3)cc2c1 [KKL-0389],0
13,CCOC(=O)COc1ccc(S(=O)(=O)N2CCc3ccccc3C2)cc1 [KKL-1396],2
14,Cc1ccc(-n2cc(CN(C)Cc3ccccn3)c(-c3ccc(F)cc3)n2)cc1 [KKL-0489],1
15,O=[N+]([O-])c1ccc(Sc2nc3ccccc3o2)c([N+](=O)[O-])c1 [KKL-1104],0
16,CC(C)(C)c1cc(NCCCn2ccnc2)n2ncc(-c3ccccc3)c2n1 [KKL-0872],0
17,Cc1nc2ccc(C(=O)OCc3cccc(F)c3)cc2nc1C [KKL-1308],0
18,Cc1ccccc1C1c2[nH]c3ccccc3c2CCN1C(=O)c1nn(C)c(=O)c2ccccc12 (stereo not shown) [KKL-0620],1
19,CC(=O)Oc1cccc2ccc(/C=C/c3c(F)cccc3Cl)nc12 [KKL-1499],0
20,CCc1c(C)c2ccc(OCC(=O)OC)c(C)c2oc1=O [KKL-1278],0
21,CCOc1cc(C(=O)ON=C(N)Cc2ccc(Cl)cc2Cl)cc(OCC)c1OCC [KKL-1414],0
22,Cc1ccnc(NC(=O)COc2ccc([N+](=O)[O-])cc2)c1 [KKL-0299],0
23,CCc1ccc(C2CC(C(F)(F)F)n3ncc(C(=O)NCc4cccs4)c3N2)cc1 (stereo not shown) [KKL-1779],0
24,CCOC(=O)c1cc(CC)sc1NC(=O)c1cc2ccccc2oc1=O [KKL-1372],0
25,CCc1ccc(/C=C/C(=O)C2C(=O)c3ccccc3C2=O)cc1 [KKL-1072],0
26,Cc1ccc2nc(C(F)(F)F)c(C(=O)NCc3cc(Cl)cc(Cl)c3)n2c1 [KKL-1785],16
27,CCC1CCCCN1C(=O)COC(=O)c1cc2ccccc2cc1O (stereo not shown) [KKL-0823],0
28,COC(=O)[C@@H](NC(=O)c1cc(COc2ccc(F)cc2Cl)on1)c1ccccc1 [KKL-0495],2

row,Compound,% activation [%]
1,O=C(CCc1ccccc1)NC(=S)Nc1ccc(N2CCCCC2)cc1 [KKL-0596],1
2,COc1ccc(NC(=O)c2ccc(C#CC(C)(C)O)s2)cc1 [KKL-0562],1
3,c1coc(CNc2nc(N3CCCCC3)nc3ccccc23)c1 [KKL-1096],0
4,O=C(Nc1ccc(F)c(Cl)c1)c1ccc([N+](=O)[O-])o1 [KKL-1402],0
5,Clc1ccc2nc(-c3ccccn3)c(Nc3ccc4c(c3)OCO4)n2c1 [KKL-1117],2
6,O=c1c2cc(Cl)ccc2oc2nc3n(c(=O)c12)CCCS3 [KKL-1007],8
7,Clc1ccc(OCCCCCn2ccnc2)c(Cl)c1 [KKL-0421],0
8,c1ccc(OCc2nn3c(-c4[nH]nc5c4CCC5)nnc3s2)cc1 [KKL-1028],7
9,Cc1ccc(NCc2nnc(SCC(=O)OC3CCCCC3)o2)c(C)c1 [KKL-1632],0
10,Cc1ccc(-n2cc(CN3CCN(c4ccccn4)CC3)c(-c3ccc(F)cc3)n2)cc1 [KKL-0320],0
11,CSCCC(=O)N1CCCC(CNC(=O)c2ccc(-c3ccccc3)cc2)C1 (stereo not shown) [KKL-0641],2
12,CCc1ccc(OCC(=O)NNC(=O)c2cnccn2)c(Br)c1 [KKL-1280],3
13,Cc1nc2ccccn2c1C(=O)NCc1ccccc1 [KKL-1735],0
14,Cc1cc(N2CCCCC2)nc2ccc(NC(=O)c3ccc(Br)o3)cc12 [KKL-1124],0
15,Cc1ccn2c(Nc3ccccc3C)c(-c3ccccn3)nc2c1 [KKL-1590],0
16,CN(c1ccccc1)c1nc(N2CCCC2)nc(-n2ccnc2)n1 [KKL-1519],0
17,O=C(C1CCN(c2nnc(-n3cccc3)s2)CC1)N1CCN(c2cccc(C(F)(F)F)c2)CC1 [KKL-1146],5
18,O=C(Nc1ccc(Oc2cccnc2)cc1)C1Oc2ccccc2O1 [KKL-0696],0
19,O=C(OCC#CCSc1nnc(-c2ccc([N+](=O)[O-])cc2)o1)c1cccs1 [KKL-0970],6
20,NC(=O)c1c(NC(=O)c2c(F)c(F)c(F)c(F)c2F)sc2c1CCC2 [KKL-1570],0
21,COC(=O)C(CCSC)NC(=O)c1cc(COc2ccc3sc(C)nc3c2)on1 (stereo not shown) [KKL-1122],0
22,Cn1c(-c2ccccc2)c(C(=O)CCl)c2ccccc21 [KKL-0824],0
23,Cc1cc([N+](=O)[O-])ccc1NC(=O)Nc1cccc(C(F)(F)F)c1 [KKL-1531],0
24,O=C(Nc1ccccc1)Nc1ccc(S(=O)(=O)Nc2cccc(C(F)(F)F)c2)cc1 [KKL-0719],0
25,CC1=NN(C(=O)c2ccccc2)C(O)(c2ccncc2)C1 (stereo not shown) [KKL-1502],0
26,CC1CCc2c(sc3nc(C(C)(C)C)nc(N4CCNCC4)c23)C1 (stereo not shown) [KKL-0525],0
27,c1ccc(CCN(Cc2ccccc2)C2CCN(Cc3c[nH]c4ccccc34)CC2)cc1 [KKL-0907],0

# 2 entries drawn at random from those above, as already listed:
row,Compound,% activation [%]
9,Cc1ccc(NCc2nnc(SCC(=O)OC3CCCCC3)o2)c(C)c1 [KKL-1632],0
2,COc1ccc(NC(=O)c2ccc(C#CC(C)(C)O)s2)cc1 [KKL-0562],1
